Data source: PubChem BioAssay AID1508597 (Cure First, 2020)

Assay: 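Survival screen with siRNA in ovarian cancer cells derived from patients, with or without rucaparib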 (primary screen)
Cells: human ovarian carcinoma lines grown from tumours: OCI-P5x (papillary serous) and OCI-C5x (clear cell)
Knock-down reagent: siRNA pool against human genes, 1.25 pmol siRNA per well
Duration: 72 h or 96 h, depending on the cell culture
Conditions: rucaparib 20 µM (about IC30) or vehicle, present until read-out
Measurement: 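ATP luminescence measured at 72 or 96 h according to the culture, then normalised and expressed as percent viability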
Direction: viability, normalised: higher = more viable cells remaining
Call rule: 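a well counts as a hit if its normalised viability is under 80 percent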
Calls: active = viability under 80%; inactive = viability 80% or more
In all, the deposit lists about 2,100 reagents; this is a part drawn at random. 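Calls flag viability under 80% in either arm, not effects specific to rucaparib; the reference for percent is not stated.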 A number with no mark means an inactive call. Not given: the 100% reference.

TP53RK (GeneID 112858), rucaparib or vehicle Rucaparib, cell line OCI-C5x (clear cell), technical replicate 1 scored viability, normalised (%) = 35.3 (active).
For TP53RK (GeneID 112858), rucaparib or vehicle Rucaparib, cell line OCI-C5x (clear cell), technical replicate 2, the values are viability, normalised (%) = 46.8 (active).
For TP53RK (GeneID 112858), rucaparib or vehicle Rucaparib, cell line OCI-C5x (clear cell), technical replicate 3 the deposit lists viability, normalised (%) = 45.4 (active).
For TP53RK (GeneID 112858), rucaparib or vehicle Rucaparib, cell line OCI-P5x (serous), technical replicate 1, the values are viability, normalised (%) = 65.7 (active).
With TP53RK (GeneID 112858), rucaparib or vehicle Rucaparib, cell line OCI-P5x (serous), technical replicate 2, the entry reads viability, normalised (%) = 61.2 (active).
TP53RK (GeneID 112858), rucaparib or vehicle Rucaparib, cell line OCI-P5x (serous), technical replicate 3 gave viability, normalised (%) = 68.5 (active).
TP53RK (GeneID 112858), rucaparib or vehicle Vehicle, cell line OCI-C5x (clear cell), technical replicate 1 gave viability, normalised (%) = 52.6 (active).
With TP53RK (GeneID 112858), rucaparib or vehicle Vehicle, cell line OCI-C5x (clear cell), technical replicate 2 the deposit lists viability, normalised (%) = 31.8 (active).
TP53RK (GeneID 112858), rucaparib or vehicle Vehicle, cell line OCI-C5x (clear cell), technical replicate 3 scored viability, normalised (%) = 44.6 (active).
With TP53RK (GeneID 112858), rucaparib or vehicle Vehicle, cell line OCI-P5x (serous), technical replicate 1, the entry reads viability, normalised (%) = 75.8 (active).
For TP53RK (GeneID 112858), rucaparib or vehicle Vehicle, cell line OCI-P5x (serous), technical replicate 2, the values are viability, normalised (%) = 65.2 (active).
With TP53RK (GeneID 112858), rucaparib or vehicle Vehicle, cell line OCI-P5x (serous), technical replicate 3, the values are viability, normalised (%) = 69.9 (active).
